Values of other authors, collected in US6605644B2, “Analgesic regimen” (Ortho-McNeil Pharmaceutical, Inc., priority 1999, dated 2003).
Structures can show the parent of a compound that is named as a salt.

Tested on: reuptake of norepinephrine
Details: in vitro; cited from earlier work

COc1cccc(C2(O)CCCCC2CN(C)C)c1 (stereo not shown) [tramadol hydrochloride, 2-[(dimethylamino)methyl]-1-(3-methoxyphenyl)cyclohexanol]
inhibition of the reuptake of norepinephrine: weak inhibition
